No constants are given. Whether binding was seen depends on the method and setting. In cells and extracts the contact can be indirect. Some entries that bind do so weakly or less than the wild type.
Biological target: ubiquitin-conjugating enzyme E2 K (UBE2K) (human (endogenous in H9 hESCs)) (UniProt P61086)
Test: co-IP; immunoprecipitation with anti-UBE2K antibody (control: anti-FLAG antibody) from H9 hESC lysate in modified RIPA buffer (50 mM Tris-HCl pH 7.4, 150 mM NaCl, 1 % IgPal, 0.25% sodium deoxycholate, 1 mM EDTA), Protein A magnetic beads, 4 °C; western blot

Chains of the proteins cited; added tags and fusions are not shown.
UniProt P61086: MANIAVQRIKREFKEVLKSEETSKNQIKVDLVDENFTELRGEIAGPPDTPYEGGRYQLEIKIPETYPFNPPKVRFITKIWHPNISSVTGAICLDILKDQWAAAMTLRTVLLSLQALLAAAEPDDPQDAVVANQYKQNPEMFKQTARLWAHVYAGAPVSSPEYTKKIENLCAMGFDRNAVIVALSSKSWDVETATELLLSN
UniProt P42858: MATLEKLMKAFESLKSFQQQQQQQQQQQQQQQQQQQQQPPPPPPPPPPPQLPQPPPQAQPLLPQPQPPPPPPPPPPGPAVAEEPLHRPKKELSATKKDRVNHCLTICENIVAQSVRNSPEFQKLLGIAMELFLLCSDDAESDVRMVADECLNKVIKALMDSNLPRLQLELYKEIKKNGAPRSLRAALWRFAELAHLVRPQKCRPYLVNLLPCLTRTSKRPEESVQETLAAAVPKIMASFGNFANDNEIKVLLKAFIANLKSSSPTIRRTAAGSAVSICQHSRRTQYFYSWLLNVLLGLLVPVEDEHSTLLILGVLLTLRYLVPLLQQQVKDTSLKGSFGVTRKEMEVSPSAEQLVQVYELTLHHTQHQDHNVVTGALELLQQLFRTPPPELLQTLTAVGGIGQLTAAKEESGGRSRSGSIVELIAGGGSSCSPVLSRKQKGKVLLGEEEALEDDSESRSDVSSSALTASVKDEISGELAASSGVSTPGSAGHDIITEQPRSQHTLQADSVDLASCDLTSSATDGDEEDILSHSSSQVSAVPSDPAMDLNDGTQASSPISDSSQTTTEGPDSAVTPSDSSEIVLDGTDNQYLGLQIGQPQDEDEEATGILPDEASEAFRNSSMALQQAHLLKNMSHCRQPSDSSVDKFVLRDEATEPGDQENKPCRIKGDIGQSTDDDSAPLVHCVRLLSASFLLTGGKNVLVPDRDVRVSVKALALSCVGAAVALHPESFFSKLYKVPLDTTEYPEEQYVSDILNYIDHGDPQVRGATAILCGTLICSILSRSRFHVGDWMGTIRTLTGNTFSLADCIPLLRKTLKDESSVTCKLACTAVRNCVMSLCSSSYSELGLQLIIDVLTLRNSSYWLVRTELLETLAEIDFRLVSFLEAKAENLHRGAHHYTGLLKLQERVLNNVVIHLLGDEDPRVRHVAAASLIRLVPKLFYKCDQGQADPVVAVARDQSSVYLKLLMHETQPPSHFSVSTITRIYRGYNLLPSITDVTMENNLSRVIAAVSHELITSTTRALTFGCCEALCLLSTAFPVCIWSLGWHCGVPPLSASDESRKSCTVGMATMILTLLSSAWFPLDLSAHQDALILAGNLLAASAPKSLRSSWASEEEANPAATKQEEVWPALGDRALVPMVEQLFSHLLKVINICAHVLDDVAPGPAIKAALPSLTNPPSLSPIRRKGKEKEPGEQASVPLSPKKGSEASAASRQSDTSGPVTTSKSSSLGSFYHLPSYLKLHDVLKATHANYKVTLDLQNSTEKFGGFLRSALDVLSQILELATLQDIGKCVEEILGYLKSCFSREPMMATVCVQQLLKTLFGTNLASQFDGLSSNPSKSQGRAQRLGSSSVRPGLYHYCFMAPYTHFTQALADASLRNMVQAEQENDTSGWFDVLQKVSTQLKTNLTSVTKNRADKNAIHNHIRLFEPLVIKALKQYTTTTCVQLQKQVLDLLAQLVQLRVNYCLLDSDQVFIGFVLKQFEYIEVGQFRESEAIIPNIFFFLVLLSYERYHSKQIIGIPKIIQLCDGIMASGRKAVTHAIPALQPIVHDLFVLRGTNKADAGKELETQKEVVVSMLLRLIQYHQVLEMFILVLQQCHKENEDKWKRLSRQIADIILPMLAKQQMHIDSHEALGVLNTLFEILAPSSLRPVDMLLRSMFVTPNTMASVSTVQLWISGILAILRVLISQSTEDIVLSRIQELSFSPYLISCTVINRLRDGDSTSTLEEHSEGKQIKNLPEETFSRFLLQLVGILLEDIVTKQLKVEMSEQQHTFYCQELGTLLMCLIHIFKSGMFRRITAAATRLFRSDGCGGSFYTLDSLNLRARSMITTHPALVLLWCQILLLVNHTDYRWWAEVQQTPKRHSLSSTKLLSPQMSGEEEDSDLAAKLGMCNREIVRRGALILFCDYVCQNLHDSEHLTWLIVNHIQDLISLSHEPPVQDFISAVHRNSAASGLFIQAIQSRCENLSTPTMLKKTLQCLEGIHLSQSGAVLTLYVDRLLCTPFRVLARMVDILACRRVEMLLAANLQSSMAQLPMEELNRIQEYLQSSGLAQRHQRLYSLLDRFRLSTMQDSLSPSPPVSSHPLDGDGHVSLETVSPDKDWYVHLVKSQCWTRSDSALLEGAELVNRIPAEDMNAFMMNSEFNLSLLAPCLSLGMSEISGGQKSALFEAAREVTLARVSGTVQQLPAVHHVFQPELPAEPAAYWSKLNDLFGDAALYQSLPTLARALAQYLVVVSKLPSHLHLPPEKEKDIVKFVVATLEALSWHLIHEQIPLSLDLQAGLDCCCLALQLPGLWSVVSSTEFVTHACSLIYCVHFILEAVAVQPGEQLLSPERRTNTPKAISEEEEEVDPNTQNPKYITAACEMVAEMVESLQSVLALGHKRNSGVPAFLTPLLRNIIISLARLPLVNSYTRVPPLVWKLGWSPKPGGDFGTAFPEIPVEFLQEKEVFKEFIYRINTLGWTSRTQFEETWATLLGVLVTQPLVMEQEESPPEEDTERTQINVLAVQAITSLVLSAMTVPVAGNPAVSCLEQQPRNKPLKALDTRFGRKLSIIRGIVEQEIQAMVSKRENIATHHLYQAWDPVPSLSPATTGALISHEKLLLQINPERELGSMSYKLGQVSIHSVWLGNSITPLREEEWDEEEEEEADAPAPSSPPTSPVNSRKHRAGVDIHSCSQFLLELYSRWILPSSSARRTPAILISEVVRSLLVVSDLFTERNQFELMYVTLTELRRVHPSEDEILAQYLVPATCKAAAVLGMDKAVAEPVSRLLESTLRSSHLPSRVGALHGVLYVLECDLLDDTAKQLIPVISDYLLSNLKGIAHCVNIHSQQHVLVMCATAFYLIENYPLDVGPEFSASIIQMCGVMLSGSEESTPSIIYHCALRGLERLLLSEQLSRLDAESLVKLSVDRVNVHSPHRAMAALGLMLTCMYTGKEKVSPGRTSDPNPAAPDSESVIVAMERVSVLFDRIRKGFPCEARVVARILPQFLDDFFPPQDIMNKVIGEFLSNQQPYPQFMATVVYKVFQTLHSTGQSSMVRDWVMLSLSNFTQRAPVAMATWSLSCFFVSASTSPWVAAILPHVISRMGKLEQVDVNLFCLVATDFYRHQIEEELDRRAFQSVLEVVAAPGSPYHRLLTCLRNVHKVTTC

huntingtin protein (HTT) (from UniProt P42858 1-3142)
binding: binds

Reference: paper PMC7248108
